{"source": "paper PMC4683259", "molecules": {"B1": {"name": "KV10.1 voltage-gated potassium channel, full-length form (E100) (protein, UniProt O95259 1-989)", "chain": "MTMAGGRRGLVAPQNTFLENIVRRSNDTNFVLGNAQIVDWPIVYSNDGFCKLSGYHRAEVMQKSSTCSFMYGELTDKDTIEKVRQTFENYEMNSFEILMYKKNRTPVWFFVKIAPIRNEQDKVVLFLCTFSDITAFKQPIEDDSCKGWGKFARLTRALTSSRGVLQQLAPSVQKGENVHKHSRLAEVLQLGSDILPQYKQEAPKTPPHIILHYCVFKTTWDWIILILTFYTAILVPYNVSFKTRQNNVAWLVVDSIVDVIFLVDIVLNFHTTFVGPAGEVISDPKLIRMNYLKTWFVIDLLSCLPYDVINAFENVDEVSAFMGDPGKIGFADQIPPPLEGRESQGISSLFSSLKVVRLLRLGRVARKLDHYIEYGAAVLVLLVCVFGLAAHWMACIWYSIGDYEIFDEDTKTIRNNSWLYQLAMDIGTPYQFNGSGSGKWEGGPSKNSVYISSLYFTMTSLTSVGFGNIAPSTDIEKIFAVAIMMIGSLLYATIFGNVTTIFQQMYANTNRYHEMLNSVRDFLKLYQVPKGLSERVMDYIVSTWSMSRGIDTEKVLQICPKDMRADICVHLNRKVFKEHPAFRLASDGCLRALAMEFQTVHCAPGDLIYHAGESVDSLCFVVSGSLEVIQDDEVVAILGKGDVFGDVFWKEATLAQSCANVRALTYCDLHVIKRDALQKVLEFYTAFSHSFSRNLILTYNLRKRIVFRKISDVKREEEERMKRKNEAPLILPPDHPVRRLFQRFRQQKEARLAAERGGRDLDDLDVEKGNVLTEHASANHSLVKASVVTVRESPATPVSFQAASTSGVPDHAKLQAPGSECLGPKGGGGDCAKRKSWARFKDACGKSEDWNKVSKAESMETLPERTKASGEATLKKTDSCDSGITKSDLRLDNVGEARSPQDRSPILAEVKHSFYPIPEQTLQATVLEVRHELKEDIKALNAKMTNIEKQLSEILRILTSRRSSQSPQELFEISRPQSPESERDIFGAS"}}, "key": {"[1]": {"target": "T1, KV10.1 voltage-gated potassium channel, full-length form (E100) (human) (UniProt O95259)", "T1 sequence": "B1 chain", "assay": "co-IP; reverse co-IP: extracts of HEK cells stably expressing KV10.1 and transfected with the mVenus-tagged variant; full-length KV10.1 precipitated with a monoclonal anti-KV10.1 antibody against the pore region (does not bind the short variants), protein G-magnetic beads; blot with anti-GFP"}, "[2]": {"target": "E65mVenus (KV10.1 splice variant E65 fused to mVenus) (human)", "assay": "co-IP; extracts of HEK cells stably expressing KV10.1 and transfected with the mVenus-tagged variant; variant precipitated with anti-GFP antibody, protein G-magnetic beads; blot with a polyclonal antibody against the C terminus of KV10.1; lysis buffer 50 mM Tris-HCl pH 7.4, 300 mM NaCl, 5 mM EDTA, 1% Triton X-100"}, "[3]": {"target": "E70mVenus (KV10.1 splice variant E70 fused to mVenus) (human)", "assay": "co-IP; extracts of HEK cells stably expressing KV10.1 and transfected with the mVenus-tagged variant; variant precipitated with anti-GFP antibody, protein G-magnetic beads; blot with a polyclonal antibody against the C terminus of KV10.1; lysis buffer 50 mM Tris-HCl pH 7.4, 300 mM NaCl, 5 mM EDTA, 1% Triton X-100"}}, "note": "Results are given in words; binding and its absence hold for the method and conditions named. Binding seen in cells or lysates may run through a third protein. Binding can be weak; no strength is given. Where a sequence is shown, tags or fusion partners need not be part of it."}
{"molecule": "E65mVenus (KV10.1 splice variant E65 fused to mVenus) (human)", "values": [{"measurement": "binding", "setting": "[1]", "value": "binds"}]}
{"molecule": "E70mVenus (KV10.1 splice variant E70 fused to mVenus) (human)", "values": [{"measurement": "binding", "setting": "[1]", "value": "binds"}]}
{"molecule": "B1", "values": [{"measurement": "binding", "setting": "[2]", "value": "binds"}, {"measurement": "binding", "setting": "[3]", "value": "binds"}]}
